Source: PubChem BioAssay AID602196 (INSERM, 2012)

- Aim: 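Modifiers of cisplatin sensitivity in A549 cells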
- Cells: human A549 lung cancer cells
- Reagent: siRNA pair against human genes
- Time to read-out: 48 h transfection before cisplatin; time from cisplatin to read-out not stated
- Conditions: cisplatin at a dose killing half of control-siRNA cells; exact dose and duration not given
- Measured: 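Shift in cisplatin death relative to control siRNA, from -50 (all cells die) to +50 (no cells die); siRNAs harmful on their own scored 0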
- Reading the numbers: two-siRNA summed score (-2 to +2): higher = both siRNAs protect from cisplatin killing; -2 means both sensitise; mean protection from cisplatin (shift in death): higher = protection from cisplatin killing
- Call rule: 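siRNAs harmful alone (LDH or WST-1) get 0; others get +1 for less and -1 for more cisplatin killing; genes are active when the two siRNAs give the same sign, summing to ±2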
- Meaning of the calls: active = both siRNAs shift cisplatin killing the same way; inactive = no consistent shift, or siRNA harmful alone
The whole screen tested about 23,000 reagents; below is a random part of them. In the full data, 455 (2%) are marked active. 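Active includes both protection and sensitisation; some change values fall well beyond the stated -50 to +50 range.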 A number with no mark means an inactive call. The numbers tell different reagents against one gene apart. Not all columns of the deposit are shown. The record does not give: the amount of reagent.

TXNDC12 scored two-siRNA summed score (-2 to +2) = 0; mean protection from cisplatin (shift in death) (%) = 2.1.
For SLC71A2, the values are two-siRNA summed score (-2 to +2) = 1; mean protection from cisplatin (shift in death) (%) = 6.9.
For PABPC5 the deposit lists two-siRNA summed score (-2 to +2) = 0; mean protection from cisplatin (shift in death) (%) = -0.2.
LOC389722 showed two-siRNA summed score (-2 to +2) = 0; mean protection from cisplatin (shift in death) (%) = 11.2.
LINC03106 scored two-siRNA summed score (-2 to +2) = 1; mean protection from cisplatin (shift in death) (%) = 2.8.
With knock-down of MAP3K12 the results were two-siRNA summed score (-2 to +2) = 1; mean protection from cisplatin (shift in death) (%) = 5.7.
After knock-down of SOD3, the screen gave two-siRNA summed score (-2 to +2) = 0; mean protection from cisplatin (shift in death) (%) = 31.9.
JAKMIP3 showed two-siRNA summed score (-2 to +2) = 0; mean protection from cisplatin (shift in death) (%) = 6.9.
Knock-down of MYO7A gave: two-siRNA summed score (-2 to +2) = 0; mean protection from cisplatin (shift in death) (%) = 5.9.
CDK5RAP1 gave two-siRNA summed score (-2 to +2) = 0; mean protection from cisplatin (shift in death) (%) = 3.7.
HGS showed two-siRNA summed score (-2 to +2) = -1; mean protection from cisplatin (shift in death) (%) = -13.7.
Silencing of LOC401330 resulted in: two-siRNA summed score (-2 to +2) = 0; mean protection from cisplatin (shift in death) (%) = 5.9.
Knock-down of CA5A came out at: two-siRNA summed score (-2 to +2) = 0; mean protection from cisplatin (shift in death) (%) = -0.3.
SPTSSB scored two-siRNA summed score (-2 to +2) = 0; mean protection from cisplatin (shift in death) (%) = 8.4.
ULBP2 gave two-siRNA summed score (-2 to +2) = 1; mean protection from cisplatin (shift in death) (%) = 18.4.
For RPL24, the values are two-siRNA summed score (-2 to +2) = 0; mean protection from cisplatin (shift in death) (%) = 19.3.
Silencing of GCGR gave: two-siRNA summed score (-2 to +2) = 1; mean protection from cisplatin (shift in death) (%) = 9.8.
Against PIH1D2, the entry reads two-siRNA summed score (-2 to +2) = 0; mean protection from cisplatin (shift in death) (%) = 1.2.
With knock-down of TANGO2, the screen gave two-siRNA summed score (-2 to +2) = 0; mean protection from cisplatin (shift in death) (%) = -4.1.
Silencing of ANKRD20A11P came out at: two-siRNA summed score (-2 to +2) = 0; mean protection from cisplatin (shift in death) (%) = 7.8.
Silencing of FGF4 resulted in: two-siRNA summed score (-2 to +2) = 0; mean protection from cisplatin (shift in death) (%) = -0.6.
ERCC5 scored two-siRNA summed score (-2 to +2) = 0; mean protection from cisplatin (shift in death) (%) = 5.5.
Depletion of MGC17403 resulted in: two-siRNA summed score (-2 to +2) = 1; mean protection from cisplatin (shift in death) (%) = 12.1.
POLR3G gave two-siRNA summed score (-2 to +2) = 2 (active); mean protection from cisplatin (shift in death) (%) = 19.3.
Against RECK the deposit lists two-siRNA summed score (-2 to +2) = 0; mean protection from cisplatin (shift in death) (%) = 8.
LINC01904 showed two-siRNA summed score (-2 to +2) = 0; mean protection from cisplatin (shift in death) (%) = -1.7.
Against RSPO1 the deposit lists two-siRNA summed score (-2 to +2) = 0; mean protection from cisplatin (shift in death) (%) = 2.3.
Depletion of DDX60 came out at: two-siRNA summed score (-2 to +2) = 1; mean protection from cisplatin (shift in death) (%) = 9.2.
Silencing of LOC441925 came out at: two-siRNA summed score (-2 to +2) = 0; mean protection from cisplatin (shift in death) (%) = 20.7.
For FHIP1B the deposit lists two-siRNA summed score (-2 to +2) = 1; mean protection from cisplatin (shift in death) (%) = 21.
After knock-down of LOC401491, the screen gave two-siRNA summed score (-2 to +2) = 0; mean protection from cisplatin (shift in death) (%) = 13.4.
Against WBP1L, the entry reads two-siRNA summed score (-2 to +2) = -1; mean protection from cisplatin (shift in death) (%) = -2.8.
With knock-down of LOC440120 the results were two-siRNA summed score (-2 to +2) = 0; mean protection from cisplatin (shift in death) (%) = 7.6.
After knock-down of GGCX, the screen gave two-siRNA summed score (-2 to +2) = 0; mean protection from cisplatin (shift in death) (%) = -3.2.
MDH1 gave two-siRNA summed score (-2 to +2) = 0; mean protection from cisplatin (shift in death) (%) = 2.7.
With knock-down of BRF1, the screen gave two-siRNA summed score (-2 to +2) = 0; mean protection from cisplatin (shift in death) (%) = 24.1.
After knock-down of ZNF117 #1, the record shows two-siRNA summed score (-2 to +2) = 0; mean protection from cisplatin (shift in death) (%) = 5.8.
ZNF117 #2 scored two-siRNA summed score (-2 to +2) = 1; mean protection from cisplatin (shift in death) (%) = 11.2.
Knock-down of LOC389534 resulted in: two-siRNA summed score (-2 to +2) = 1; mean protection from cisplatin (shift in death) (%) = 13.8.
With knock-down of OTOP3, the screen gave two-siRNA summed score (-2 to +2) = 2 (active); mean protection from cisplatin (shift in death) (%) = 31.1.

3 entries from above in another layout.
GGCX
- two-siRNA summed score (-2 to +2): 0
- mean protection from cisplatin (shift in death) (%): -3.2

MDH1
- two-siRNA summed score (-2 to +2): 0
- mean protection from cisplatin (shift in death) (%): 2.7

BRF1
- two-siRNA summed score (-2 to +2): 0
- mean protection from cisplatin (shift in death) (%): 24.1
